What all share (type): cell-based
In experiment [1] the target is T1, RNA polymerase II (Mus musculus) (UniProt P08775+Q8CFI7+P97760+A0A3Q4L2S8+Q80UW8+P61219+P62488+Q923G2+P60898+O08740+Q63871+P62876). Description: Inhibition of RNA polymerase II in mouse B16-F1 migrating cells assessed as fold change in CT030181.1-RNA stability at 0.1 mM measured by ChIP-seq analysis relative to control cells.
For experiment [2], the target named is T1, RNA polymerase II (Mus musculus). Nature of the experiment: Inhibition of RNA polymerase II in mouse B16-F1 migrating cells assessed as fold change in Zfp281-RNA stability at 0.1 mM measured by ChIP-seq analysis relative to control cells.
Experiment [3] has the same target. Description: Inhibition of RNA polymerase II in mouse B16-F1 migrating cells assessed as fold change in Prpf40a-RNA stability at 0.1 mM measured by ChIP-seq analysis relative to control cells.
The target is the same in experiment [4]. Description: Inhibition of RNA polymerase II in mouse B16-F1 migrating cells assessed as fold change in Ndufb7-RNA stability at 0.1 mM measured by ChIP-seq analysis relative to control cells.
For experiment [5] the target is unchanged. Description: Inhibition of RNA polymerase II in mouse B16-F1 migrating cells assessed as fold change in Pms1-RNA stability at 0.1 mM measured by ChIP-seq analysis relative to control cells.
Experiment [6] has the same target. Description: Inhibition of RNA polymerase II in mouse B16-F1 migrating cells assessed as fold change in Ikzf5-RNA stability at 0.1 mM measured by ChIP-seq analysis relative to control cells.
Experiment [7] shares this target. Description: Inhibition of RNA polymerase II in mouse B16-F1 migrating cells assessed as fold change in Brpf1-RNA stability at 0.1 mM measured by ChIP-seq analysis relative to control cells.
The target is the same in experiment [8]. Nature of the experiment: Inhibition of RNA polymerase II in mouse B16-F1 migrating cells assessed as fold change in Snta1-RNA stability at 0.1 mM measured by ChIP-seq analysis relative to control cells.
The target is the same in experiment [9]. Description: Inhibition of RNA polymerase II in mouse B16-F1 migrating cells assessed as fold change in Suz12-RNA stability at 0.1 mM measured by ChIP-seq analysis relative to control cells.
Experiment [10] shares this target. Description: Inhibition of RNA polymerase II in mouse B16-F1 migrating cells assessed as fold change in Nup50-RNA stability at 0.1 mM measured by ChIP-seq analysis relative to control cells.
Experiment [11] has the same target. Description: Inhibition of RNA polymerase II in mouse B16-F1 migrating cells assessed as fold change in Zfp24-RNA stability at 0.1 mM measured by ChIP-seq analysis relative to control cells.
Experiment [12] has the same target. Description: Inhibition of RNA polymerase II in mouse B16-F1 migrating cells assessed as fold change in Rpl36-RNA stability at 0.1 mM measured by ChIP-seq analysis relative to control cells.
Experiment [13] has the same target. Description: Inhibition of RNA polymerase II in mouse B16-F1 migrating cells assessed as fold change in Slc2a1-RNA stability at 0.1 mM measured by ChIP-seq analysis relative to control cells.
Experiment [14] has the same target. Description: Inhibition of RNA polymerase II in mouse B16-F1 migrating cells assessed as fold change in Plekhb2-RNA stability at 0.1 mM measured by ChIP-seq analysis relative to control cells.
For experiment [15] the target is unchanged. Description: Inhibition of RNA polymerase II in mouse B16-F1 migrating cells assessed as fold change in Smim4-RNA stability at 0.1 mM measured by ChIP-seq analysis relative to control cells.
Experiment [16] shares this target. Description: Inhibition of RNA polymerase II in mouse B16-F1 migrating cells assessed as fold change in Topbp1-RNA stability at 0.1 mM measured by ChIP-seq analysis relative to control cells.
The target is the same in experiment [17]. Nature of the experiment: Inhibition of RNA polymerase II in mouse B16-F1 migrating cells assessed as fold change in Slc27a4-RNA stability at 0.1 mM measured by ChIP-seq analysis relative to control cells.
For experiment [18] the target is unchanged. Description: Inhibition of RNA polymerase II in mouse B16-F1 migrating cells assessed as fold change in Tex264-RNA stability at 0.1 mM measured by ChIP-seq analysis relative to control cells.
For experiment [19] the target is unchanged. Description: Inhibition of RNA polymerase II in mouse B16-F1 migrating cells assessed as fold change in Pgls-RNA stability at 0.1 mM measured by ChIP-seq analysis relative to control cells.
Experiment [20] has the same target. Description: Inhibition of RNA polymerase II in mouse B16-F1 migrating cells assessed as fold change in Rc3h2-RNA stability at 0.1 mM measured by ChIP-seq analysis relative to control cells.
Experiment [21] has the same target. Nature of the experiment: Inhibition of RNA polymerase II in mouse B16-F1 migrating cells assessed as fold change in Aspm-RNA stability at 0.1 mM measured by ChIP-seq analysis relative to control cells.
Experiment [22] has the same target. Description: Inhibition of RNA polymerase II in mouse B16-F1 migrating cells assessed as fold change in Vamp8-RNA stability at 0.1 mM measured by ChIP-seq analysis relative to control cells.
For experiment [23] the target is unchanged. Nature of the experiment: Inhibition of RNA polymerase II in mouse B16-F1 migrating cells assessed as fold change in BC003331-RNA stability at 0.1 mM measured by ChIP-seq analysis relative to control cells.
Experiment [24] concerns the target Histone-lysine N-methyltransferase EZH2 (Mus musculus) (UniProt Q61188). Nature of the experiment: Inhibition of EZH2 in mouse B16-F1 migrating cells assessed as fold change in H3K27me3-buffered regulated 9930012K11Rik-mRNA expression at 3 uM measured by ChIP-seq analysis relative to control cells.
Experiment [25] shares this target. Description: Inhibition of EZH2 in mouse B16-F1 migrating cells assessed as fold change in H3K27me3-buffered regulated Cdc42ep3-mRNA expression at 3 uM measured by ChIP-seq analysis relative to control cells.
Experiment [26] shares this target. Description: Inhibition of EZH2 in mouse B16-F1 migrating cells assessed as fold change in H3K27me3-buffered regulated Hoxd13-mRNA expression at 3 uM measured by ChIP-seq analysis relative to control cells.
Experiment [27] has the same target. Nature of the experiment: Inhibition of EZH2 in mouse B16-F1 migrating cells assessed as fold change in H3K27me3-buffered regulated Mxd3-mRNA expression at 3 uM measured by ChIP-seq analysis relative to control cells.
For experiment [28] the target is unchanged. Description: Inhibition of EZH2 in mouse B16-F1 migrating cells assessed as fold change in H3K27me3-buffered regulated Polq-mRNA expression at 3 uM measured by ChIP-seq analysis relative to control cells.
Experiment [29] shares this target. Description: Inhibition of EZH2 in mouse B16-F1 migrating cells assessed as fold change in H3K27me3-buffered regulated Rgs7bp-mRNA expression at 3 uM measured by ChIP-seq analysis relative to control cells.
Experiment [30] has the same target. Description: Inhibition of EZH2 in mouse B16-F1 migrating cells assessed as fold change in H3K27me3-buffered regulated Stc1-mRNA expression at 3 uM measured by ChIP-seq analysis relative to control cells.

Chains of the proteins cited; added tags and fusions are not shown.
UniProt Q61188, whole entry: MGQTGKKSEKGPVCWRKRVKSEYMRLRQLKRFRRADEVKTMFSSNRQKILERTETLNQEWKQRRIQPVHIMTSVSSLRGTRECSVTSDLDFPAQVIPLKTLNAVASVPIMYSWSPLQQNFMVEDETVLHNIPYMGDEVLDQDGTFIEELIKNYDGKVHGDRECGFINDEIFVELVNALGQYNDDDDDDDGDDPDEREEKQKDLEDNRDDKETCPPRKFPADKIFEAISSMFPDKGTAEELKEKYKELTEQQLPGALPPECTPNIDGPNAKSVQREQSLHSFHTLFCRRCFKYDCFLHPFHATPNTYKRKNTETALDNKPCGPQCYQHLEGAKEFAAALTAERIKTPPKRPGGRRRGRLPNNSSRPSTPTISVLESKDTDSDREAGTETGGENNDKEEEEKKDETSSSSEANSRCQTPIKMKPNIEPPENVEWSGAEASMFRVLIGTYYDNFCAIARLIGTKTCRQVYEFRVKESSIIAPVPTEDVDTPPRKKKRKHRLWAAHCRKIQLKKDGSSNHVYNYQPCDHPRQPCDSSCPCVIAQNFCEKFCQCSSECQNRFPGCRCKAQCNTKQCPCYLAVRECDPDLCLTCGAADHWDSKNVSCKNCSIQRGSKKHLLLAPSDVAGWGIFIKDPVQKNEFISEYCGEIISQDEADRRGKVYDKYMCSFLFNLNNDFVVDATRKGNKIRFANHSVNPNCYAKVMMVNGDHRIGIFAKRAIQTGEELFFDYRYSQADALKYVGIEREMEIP

This continues a long series; more values of the same kind are listed elsewhere.

Regarding `OC[C@H]1O[C@@H](n2cnc3cc(Cl)c(Cl)cc32)[C@H](O)[C@@H]1O`, the log2FC in [1] was 0.68; in experiment [2] it was -1.06; in experiment [3], -0.65; in [4] it was 0.6; in experiment [5], -0.8; in [6], -1.17. Also, the log2FC in experiment [7] was -0.39; in experiment [8] it was 0.46; in experiment [9], -0.6; in experiment [10] it was -0.48; in experiment [11], -0.54; in experiment [12], 0.55. In addition, the log2FC in [13] is 0.68; in [14], 0.39; in experiment [15] it was 0.59; in experiment [16] it was -0.43; in experiment [17] it was 0.54; in experiment [18], 0.53. The log2FC in experiment [19] was 0.63; in [20], -0.45; in [21], -0.57; in [22], 0.54; in experiment [23] it was -0.84.
On to `CCCc1cc(C)[nH]c(=O)c1CNC(=O)c1cc(-c2ccnc(N3CCN(C)CC3)c2)cc2c1cnn2C(C)C`, for which the log2FC in experiment [24] was -0.59; in [25] it was -0.93; in [26], -0.4; in experiment [27], -0.42; in [28], -0.41; in experiment [29], -0.6. Further, in experiment [30], the log2FC came out at 1.12.
